Experimental findings from patent US8142769B2, “Preparation and xenotransplantation of porcine islets” (Diabcell Pty Ltd, priority 2000, dated 2012) are described below.

One test concerns porcine islets. The test is described as follows: Static glucose stimulation (SGS): in vitro insulin secretion of porcine islets in culture. The format is cell-based. As to conditions: Lignocaine during pancreatic digestion. An excerpt:
Static glucose stimulation (SGS) is used to assess in vitro function of the porcine islets by exposing them to low and high concentrations of glucose and theophylline. Determination of the in vitro insulin secretory capacity is undertaken on both free islets (after 3 days in culture) and after their subsequent encapsulation.
Keep the cells 3 days in culture before Static Glucose Stimulation (SGS). SGS involves exposure of the cells to low and high concentration of glucose to check insulin production. […]
Islet endocrine function was assessed after 3 days in culture via static glucose stimulation. Islets isolated with Lignocaine during digestion produced a 3-fold increase in insulin secretion in response to glucose challenge.

Another test has as its system 7 d old porcine pancreas. Description: Islet yield from enzymatic digestion of neonatal porcine pancreas (DTZ staining).

The structures appear in SMILES notation.

On to `CCN(CC)CC(=O)Nc1c(C)cccc1C` [Lignocaine, reference compound], for which, in the test with porcine islets, the “Increase of insulin production/g of pancreas” value was 6 fold. In addition, the “Increase in islet yield” value in the test with 7 d old porcine pancreas (1 mM during Collagenase digestion of 7 d old porcine pancreas) amounted to 2 fold. Further, the Average islet yield in the test with 7 d old porcine pancreas (Collagenase digestion of 7 d old porcine pancreas, with or without 1 mM Lignocaine) is on record as 88,183 IEQ/g.
